Taken from: PubChem BioAssay AID720505 (Drosophila RNAi Screening Center, 2013)
In all, the deposit lists about 20,000 reagents; below is a random part of those that have a named target and a result. In the full data, about 2,100 (10%) were called active. 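Raw plate signals without normalisation; calls rest on control-based scores that were not deposited; replicate 2 separates called from uncalled poorly.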 Reagents against one gene are numbered here. A plus sign joins genes that one reagent is predicted to hit. Not given: the amount of reagent, the time to read-out.

- Purpose: 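Knock-downs that reduce calcium influx once internal stores are emptied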 (primary screen)
- Cells: Drosophila S2R+ cells
- Reagents: long dsRNA against Drosophila genes
- Challenge: thapsigargin (2 µM) in calcium-free buffer to empty internal stores, then 2 mM calcium added back
- Detection: 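Fluo-4 signal in 384-well plates read on a FLIPR after thapsigargin (2 µM, calcium-free) store depletion and 2 mM calcium add-back; unnormalised mean endpoint per well; screen run twice, selected wells retested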
- Reading the numbers: calcium signal and retest calcium signal: higher = more calcium entry after store depletion
- Hit rule: 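Knock-downs counted as hits when calcium entry dropped relative to STIM1 positive and Rho1 negative controls present on each plate; roughly 1500 genes called, with reductions of differing size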
- Calls: active = called as lowering calcium entry; inactive = not called

| gene | reagent no. | calcium signal, replicate 1 | calcium signal, replicate 2 | retest calcium signal, replicate 1 | retest calcium signal, replicate 2 | activity call |
| --- | --- | --- | --- | --- | --- | --- |
| CG14877 | 1 | 141 | 242 | – | – | inactive |
| CG4730 | 1 | 220 | 115 | – | – | inactive |
| CR12842 (pseudo) | 1 | 70.9 | 112 | – | – | active |
| CG2116 | 1 | 107 | 78.7 | – | – | inactive |
| rib (ribbon) | 1 | 130 | 134 | – | – | inactive |
| GstD6 (Glutathione S transferase D6) | 1 | 129 | 92.6 | – | – | inactive |
| vig2 | 1 | 210 | 289 | – | – | inactive |
| CG6834 | 1 | 151 | 105 | – | – | inactive |
| CG14120 | 1 | 97.9 | 55.7 | – | – | inactive |
| Enoph (Enolase-phosphatase) | 1 | 69.8 | 98.1 | – | – | active |
| CG43101 | 1 | 82.3 | 120 | – | – | inactive |
| CG12253 | 1 | 74.1 | 106 | – | – | inactive |
| MetRS (Methionyl-tRNA synthetase) | 1 | 100 | 79.2 | – | – | inactive |
| Acp62F (Accessory gland protein 62F) | 1 | 79.8 | 94.3 | – | – | inactive |
| Spc105R (Spc105-related) | 1 | 65 | 67.2 | – | – | active |
| CG14400 | 1 | 178 | 106 | – | – | inactive |
| Cont (Contactin) | 1 | 57.5 | 104 | – | – | active |
| csul (capsuleen) | 1 | 137 | 176 | – | – | inactive |
| Or24a (Odorant receptor 24a) | 1 | 87.8 | 107 | – | – | inactive |
| CG13744 | 1 | 116 | 128 | – | – | inactive |
| CG44836 | 1 | 87.3 | 174 | – | – | inactive |
| CG2182 | 1 | 119 | 147 | – | – | inactive |
| CG33080 | 1 | 241 | 134 | – | – | inactive |
| CG33080 | 2 | 223 | 105 | – | – | inactive |
| CG33080 | 3 | 72.1 | 179 | – | – | active |
| CG9519 | 1 | 131 | 101 | – | – | inactive |
| CG4752 | 1 | 68.9 | 115 | – | – | inactive |
| RpS3A (Ribosomal protein S3A) | 1 | 94.7 | 124 | – | – | inactive |
| CG33331 + CG33332 | 1 | 178 | 198 | – | – | inactive |
| 14-3-3epsilon | 1 | 194 | 189 | – | – | inactive |
| vir-1 (virus-induced RNA 1) | 1 | 110 | 112 | – | – | inactive |
| vir-1 (virus-induced RNA 1) | 2 | 114 | 88.5 | – | – | inactive |
| CG11400 | 1 | 134 | 130 | – | – | inactive |
| Pgant2 (Polypeptide N-Acetylgalactosaminyltransferase 2) | 1 | 191 | 115 | – | – | inactive |
| Dh31 (Diuretic hormone 31) | 1 | 198 | 166 | – | – | inactive |
| Pbgs (Porphobilinogen synthase) | 1 | 100 | 98.4 | – | – | inactive |
| CG30192 | 1 | 92.4 | 6139 | – | – | inactive |
| mts (microtubule star) | 1 | 117 | 186 | – | – | inactive |
| CG5892 | 1 | 169 | 81.9 | – | – | inactive |
| dve (defective proventriculus) | 1 | 62 | 241 | – | – | inactive |
| chas (chascon) | 1 | 101 | 116 | – | – | inactive |
| chas (chascon) | 2 | 98.3 | 116 | – | – | inactive |
| Prp5 (pre-mRNA processing factor 5) | 1 | 71.1 | 76.1 | – | – | active |
| Manf (Mesencephalic astrocyte-derived neurotrophic factor) | 1 | 113 | 214 | – | – | inactive |
| chrb (charybde) | 1 | 129 | 79.2 | 165 | 163 | inactive |
| prd (paired) | 1 | 99.9 | 105 | – | – | inactive |
| kmr (kramer) | 1 | – | – | – | – | active |
| kmr (kramer) | 2 | 84.5 | 149 | – | – | inactive |
| kmr (kramer) | 3 | 102 | 189 | – | – | inactive |
| kmr (kramer) | 4 | 103 | 88 | – | – | inactive |
| qua (quail) | 1 | 117 | 98.8 | – | – | inactive |
| Ctf4 (Chromosome transmission fidelity 4) | 1 | 115 | 169 | – | – | inactive |
| Rad51D (Rad51 recombinase D) | 1 | 138 | 143 | – | – | inactive |
| Bcs1 (Bcs1 chaperone) | 1 | 171 | 129 | – | – | inactive |
| CG6867 | 1 | 110 | 181 | 88.6 | 104 | inactive |
| gem (gemini) | 1 | 142 | 193 | – | – | inactive |
| gem (gemini) | 2 | 115 | 108 | – | – | inactive |
| CG3280 (retired record) | 1 | 96.5 | 106 | – | – | inactive |
| Trissin | 1 | 113 | 93.5 | – | – | inactive |
| CG5793 + Obp93a | 1 | 130 | 149 | – | – | inactive |
| gogo (golden goal) | 1 | 72.7 | 129 | – | – | inactive |
| gogo (golden goal) | 2 | 49.8 | 129 | – | – | active |
| sbb (scribbler) | 1 | 95.9 | 84.9 | – | – | inactive |
| sbb (scribbler) | 2 | 137 | 127 | – | – | inactive |
| Mnt | 1 | 122 | 179 | – | – | inactive |
| Mnt | 2 | 160 | 104 | – | – | inactive |
| AIMP3 (aaRS-interacting multifunctional protein 3) | 1 | 188 | 173 | – | – | inactive |
| CG13516 | 1 | 97.7 | 140 | – | – | inactive |
| CG8343 | 1 | 177 | 85.4 | – | – | inactive |
| CG7990 | 1 | 66.3 | 88.9 | – | – | active |
| CG7990 | 2 | 147 | 123 | – | – | inactive |
| CG7990 | 3 | 110 | 150 | – | – | inactive |
| hng3 (hinge3) | 1 | 108 | 68.9 | – | – | inactive |
| TfIIA-S (Transcription-factor-IIA-S) | 1 | 136 | 96.1 | – | – | inactive |
| CG42633 | 1 | 143 | 88.1 | – | – | inactive |
| RpS16 (Ribosomal protein S16) | 1 | 44.8 | 142 | – | – | active |
| CG2321 | 1 | 105 | 121 | – | – | inactive |
| Drip | 1 | 135 | 169 | – | – | inactive |
| RpL8 (Ribosomal protein L8) | 1 | 51.4 | 42.7 | – | – | active |
| RpL8 (Ribosomal protein L8) | 2 | 58.6 | 72.3 | – | – | active |
| CG30148 | 1 | 132 | 154 | – | – | inactive |
| hng1 (hinge1) | 1 | 72.4 | 157 | – | – | active |
| Hsepi (Heparan sulfate C5-epimerase) | 1 | 119 | 233 | – | – | inactive |
| CG6481 | 1 | 74 | 132 | – | – | inactive |
| ovo | 1 | 122 | 102 | – | – | inactive |
| ovo | 2 | 205 | 85.8 | – | – | inactive |
| RpL35A (Ribosomal protein L35A) | 1 | 122 | 99.9 | – | – | inactive |
| holn1 (hole-in-one) | 1 | 117 | 125 | – | – | inactive |
| holn1 (hole-in-one) | 2 | 90 | 84.6 | – | – | inactive |
| MME1 (Mitochondrial Magnesium Exporter 1) | 1 | 97.8 | 240 | – | – | inactive |
| CG12680 | 1 | 265 | 126 | – | – | inactive |
| Naa60 (N(alpha)-acetyltransferase 60) | 1 | 99.8 | 108 | – | – | inactive |
| Lamtor5 (Late endosomal/lysosomal adaptor, MAPK and MTOR activator 5) | 1 | 147 | 190 | – | – | inactive |
| CG6974 | 1 | 155 | 156 | – | – | inactive |
| CG33225 | 1 | 92.6 | 6973 | – | – | inactive |
| subdued | 1 | 111 | 203 | – | – | inactive |
| Sk2 (Sphingosine kinase 2) | 1 | 101 | 116 | – | – | inactive |
| RSG7 (Regulator of G-protein signaling 7) | 1 | 93.9 | 165 | – | – | inactive |
| RSG7 (Regulator of G-protein signaling 7) | 2 | 103 | 74.7 | – | – | inactive |
| CG34124 | 1 | 107 | 155 | – | – | inactive |
| Theg (Testicular haploid expressed gene) | 1 | 112 | 177 | – | – | inactive |
| CG15293 | 1 | 97.4 | 120 | – | – | inactive |
| lncRNA:CR31647 (long non-coding RNA:CR31647) | 1 | 109 | 210 | – | – | inactive |
| CG13101 | 1 | 107 | 162 | – | – | inactive |
| CG1602 | 1 | 129 | 160 | – | – | inactive |
| CG7120 | 1 | 86.9 | 75 | – | – | inactive |
